PubChem BioAssay AID652243, Drosophila RNAi Screening Center – 2013

Test: 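Fly genes required for human androgen receptor driven transcription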 (primary screen)
System: Drosophila S2R+ cells
Knock-down reagent: long dsRNA against Drosophila genes
Time to read-out: 72 h (48 h, then 24 h hormone)
Conditions: synthetic androgen R1881 at 10 nM for 24 h
Detection: 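Firefly light from an androgen-responsive reporter and Renilla control light per well, raw and unnormalised, for each of two replicates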
Reading the numbers: firefly reporter light: higher = more light from androgen-responsive reporter; Renilla control light: higher = more constitutive control signal (cell number, transfection)
Hit rule: 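Across duplicate plates, a knock-down whose log firefly/Renilla ratio shifted a set fold down or up from the GFP/LacZ control mean was a hit; the downward cut appears as both 1.5 and 3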
Meaning of the calls: active = hit: reporter lowered or raised; inactive = no hit
In all, the deposit lists about 24,000 reagents; this is a random part of those that have a named target and a result. Of all reagents, 246 (1%) were called active. 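Plates not normalised; calls are printed but the firefly/Renilla ratio behind them is not deposited; fold cut for lowering reported inconsistently.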 Raw values are not corrected between plates. A plus sign joins genes that one reagent is predicted to hit. Not given: the amount of reagent.

The opening 6 entries, ahead of the listing:
predicted target	dsRNA	firefly reporter light, replicate 1	firefly reporter light, replicate 2	Renilla control light, replicate 1	Renilla control light, replicate 2	Outcome
Prx4 (Peroxiredoxin 4)	DRSC08668	1.34e5	1.06e5	1.06e6	9.08e5	inactive
Prx4 (Peroxiredoxin 4)	DRSC24543	6.28e5	4.46e5	4.46e5	5.08e5	inactive
CG6901	DRSC16129	2.45e5	2.38e5	2.88e6	2.56e6	inactive
CG6901	DRSC26477	2.40e5	2.12e5	2.76e5	3.15e5	inactive
kis (kismet)	DRSC00521	60390	42339	3.17e5	3.78e5	inactive
kis (kismet)	DRSC00625	65041	77508	5.23e5	8.62e5	inactive

The listing, repeating the preview:
predicted target	dsRNA	firefly reporter light, replicate 1	firefly reporter light, replicate 2	Renilla control light, replicate 1	Renilla control light, replicate 2	Outcome
Prx4 (Peroxiredoxin 4)	DRSC08668	1.34e5	1.06e5	1.06e6	9.08e5	inactive
Prx4 (Peroxiredoxin 4)	DRSC24543	6.28e5	4.46e5	4.46e5	5.08e5	inactive
CG6901	DRSC16129	2.45e5	2.38e5	2.88e6	2.56e6	inactive
CG6901	DRSC26477	2.40e5	2.12e5	2.76e5	3.15e5	inactive
kis (kismet)	DRSC00521	60390	42339	3.17e5	3.78e5	inactive
kis (kismet)	DRSC00625	65041	77508	5.23e5	8.62e5	inactive
kis (kismet)	DRSC00823	7.70e5	7.60e5	3.97e6	2.12e6	inactive
kis (kismet)	DRSC39149	6.72e5	5.30e5	1.72e6	1.73e6	inactive
SCaMC	DRSC10293	7.78e5	9.13e5	1.63e6	1.99e6	inactive
SCaMC	DRSC10415	1.97e5	1.34e5	2.39e6	1.53e6	inactive
SCaMC	DRSC28518	5.15e5	6.11e5	7.61e5	8.69e5	inactive
CheA75a (Chemosensory protein A 75a)	DRSC10807	1.12e5	30507	1.21e6	3.56e5	inactive
l(3)73Ah (lethal (3) 73Ah)	DRSC11359	2.36e5	1.78e5	1.48e6	1.25e6	inactive
RagC-D (Ras-related GTP binding C/D)	DRSC07239	9.04e5	1.11e6	1.23e6	1.27e6	inactive
CG11779	DRSC14384	67149	1.09e5	5.21e5	4.87e5	inactive
Ttc1 (Tetratricopeptide repeat domain 1)	DRSC15016	2.92e5	2.83e5	3.27e6	3.60e6	inactive
Ttc1 (Tetratricopeptide repeat domain 1)	DRSC22469	6.09e5	9.39e5	1.50e6	1.60e6	inactive
Ttc1 (Tetratricopeptide repeat domain 1)	DRSC26111	3.93e5	3.95e5	7.62e5	7.12e5	inactive
Spred (Sprouty-related protein with EVH-1 domain)	DRSC05976	1.54e6	7.95e5	3.05e6	1.95e6	inactive
Spred (Sprouty-related protein with EVH-1 domain)	DRSC27475	7.03e5	4.07e5	6.74e5	3.79e5	inactive
Spred (Sprouty-related protein with EVH-1 domain)	DRSC37057					inactive
CG34229	DRSC06316	2.70e5	2.48e5	1.83e6	2.01e6	inactive
CG10345	DRSC14138	77810	97216	4.19e5	5.17e5	inactive
Src42A (Src oncogene at 42A)	DRSC04865	9.75e5	1.12e6	1.61e6	2.06e6	inactive
Src42A (Src oncogene at 42A)	DRSC04915	2.81e5	2.83e5	2.18e6	2.10e6	inactive
Src42A (Src oncogene at 42A)	DRSC26266	3.53e5	3.39e5	8.40e5	6.84e5	inactive
Src42A (Src oncogene at 42A)	DRSC36641	5.72e5	5.50e5	1.41e6	1.27e6	inactive
Src42A (Src oncogene at 42A)	DRSC36642					inactive
CG10948	DRSC09806	1.24e5	1.23e5	1.58e6	1.39e6	inactive
CG4617	DRSC18377	84011	54475	8.02e5	4.93e5	inactive
CG4617	DRSC23828	9.64e5	1.07e6	7.03e5	8.31e5	inactive
EloB (Elongin B)	DRSC16663	2.20e5	2.36e5	3.19e6	3.45e6	inactive
klg (klingon)	DRSC13591	37159	45689	80883	1.28e5	inactive
klg (klingon)	DRSC16978	1.58e5	2.08e5	1.90e6	1.87e6	inactive
CG4073	DRSC15542	1.30e5	1.04e5	1.43e6	2.01e6	inactive
Jhbp5 (Juvenile hormone binding protein 5)	DRSC14240	1.92e5	2.30e5	2.87e6	3.23e6	inactive
asRNA:CR43426 + CG32462	DRSC29458	6.28e5	6.77e5	1.21e6	1.21e6	inactive
CG4622	DRSC04479	6.20e5	4.43e5	1.55e6	1.04e6	inactive
CG15439	DRSC00453	2.69e5	3.40e5	2.46e6	3.53e6	inactive
CG15439	DRSC29801	4.48e5	4.96e5	9.40e5	1.30e6	inactive
PICK1 (Protein interacting with C kinase 1)	DRSC02936	2.47e5	1.96e5	1.74e6	1.96e6	inactive
CG31789	DRSC01645	1.92e5	1.45e5	3.03e5	4.35e5	inactive
CG31789	DRSC25757	5.56e5	3.89e5	7.92e5	6.78e5	inactive
Rab9D + Rab9E + Rab9Db + 1 more	DRSC27303	2.14e5	2.83e5	7.68e5	7.52e5	inactive
wor (worniu)	DRSC03637	1.75e5	1.96e5	2.27e6	2.77e6	inactive
wor (worniu)	DRSC25651	4.20e5	3.03e5	9.31e5	5.81e5	inactive
CG17776	DRSC18136	4.03e5	4.10e5	3.70e6	2.73e6	inactive
CG17776	DRSC27477	5.36e5	4.46e5	8.84e5	1.25e6	inactive
CG5819	DRSC04520	1.55e5	1.69e5	1.42e6	9.12e5	inactive
CG5819	DRSC28265	3.14e5	4.64e5	1.04e6	1.44e6	inactive
Phae2 (Phaedra 2)	DRSC02555	2.35e5	2.77e5	1.97e6	2.27e6	inactive
r-l (rudimentary-like)	DRSC17042	3.14e5	3.51e5	1.83e6	2.23e6	inactive
r-l (rudimentary-like)	DRSC22784	5.29e5	8.82e5	9.60e5	1.44e6	inactive
Polr2F (RNA polymerase II, I and III subunit F)	DRSC12366	58742	73207	1.77e6	1.74e6	inactive
Polr2F (RNA polymerase II, I and III subunit F)	DRSC28784	4.13e5	4.59e5	1.06e6	1.01e6	inactive
CG16865	DRSC01904	2.88e5	2.49e5	1.48e6	1.48e6	inactive
ZnT41F (Zinc transporter 41F)	DRSC04850	1.05e6	8.67e5	2.45e6	2.49e6	inactive
se (sepia)	DRSC10713	1.46e5	1.12e5	1.80e6	1.10e6	inactive
